# Values from PubChem BioAssay AID1224828 (NIAID, 2016).
# Aim: 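Knock-downs that increase or decrease LPS-induced p65 nuclear translocation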 (primary screen)
# System: mouse RAW264.7 G9 macrophage reporter cells (GFP-p65, Tnf promoter-mCherry)
# Reagent: siRNA pool against mouse genes, 100 nM
# Duration: 2 days siRNA transfection, then 40 min LPS before fixation
# Conditions: LPS (Salmonella minnesota R595) at 10 ng/ml
# Detection: 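Imaged p65 nuclear translocation ratio, normalised to the plate median, converted to robust z-scores and averaged across two replicates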
# Scale: p65 translocation robust z-score: higher = more nuclear NF-kappaB p65 after LPS than the plate median; nuclear/cytoplasmic p65 ratio: higher = more nuclear NF-kappaB p65
# Hit rule: 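Called active when z exceeds 3.3 or falls under -1.56 (median of Tlr4 controls), giving activity score of at least 50; no calls for control wells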
# Calls: active = hit (p65 shift raised or lowered); inactive = no clear change
# In all, the deposit lists about 17,000 reagents; shown is an unselected part. 762 of them (4.5%) count as active. 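Active calls include both raised and lowered p65 entry, mostly lowered; wells with fewer than 50 cells lack a z-score.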 Raw values are not corrected between plates.
gene knocked down,p65 translocation robust z-score,"nuclear/cytoplasmic p65 ratio, rep 1","nuclear/cytoplasmic p65 ratio, rep 2",low cell count flag,outcome
Slc39a14,0.12,1.46,1.23,enough cells to score,inactive
Pde6g,0.58,1.42,1.47,enough cells to score,inactive
Cercam,-1.34,1.39,1.43,enough cells to score,inactive
Trim24,0.43,1.61,1.52,enough cells to score,inactive
Slc39a7,,1.9,0,fewer than 50 cells per well; well left out of scoring,inactive
4931422A03Rik,,1.25,1.45,fewer than 50 cells per well; well left out of scoring,inactive
Kmo,0.42,1.8,1.32,enough cells to score,inactive
Notum,0.99,1.49,1.6,enough cells to score,inactive
Arhgef39,-0.88,1.43,1.2,enough cells to score,inactive
Rasgrp1,,1.64,1.35,fewer than 50 cells per well; well left out of scoring,inactive
Vipr2,1.7,1.98,1.61,enough cells to score,inactive
Flt4,-0.35,1.63,1.34,enough cells to score,inactive
Olig3,-0.04,1.47,1.38,enough cells to score,inactive
Epo,-0.07,1.6,1.35,enough cells to score,inactive
Asb8,,1.51,1.3,fewer than 50 cells per well; well left out of scoring,inactive
Htr4,-0.9,1.39,1.44,enough cells to score,inactive
Vtn,-0.06,1.6,1.4,enough cells to score,inactive
Cyp51,-0.75,1.45,1.68,enough cells to score,inactive
Vmn1r58,0.62,1.44,1.3,enough cells to score,inactive
Gpr143,-0.26,1.49,1.53,enough cells to score,inactive
Ipo13,-0.9,1.49,1.25,enough cells to score,inactive
1810009A15Rik,-1.79,1.13,1.22,enough cells to score,active
Armc10,-0.62,1.34,1.35,enough cells to score,inactive
Cmpk2,0.4,1.4,1.31,enough cells to score,inactive
Slc26a5,0.1,1.42,1.2,enough cells to score,inactive

7 of these entries, reformatted.
gene knocked down	p65 translocation robust z-score	nuclear/cytoplasmic p65 ratio, rep 1	nuclear/cytoplasmic p65 ratio, rep 2	low cell count flag	outcome
Htr4	-0.9	1.39	1.44	enough cells to score	inactive
Vtn	-0.06	1.6	1.4	enough cells to score	inactive
Cyp51	-0.75	1.45	1.68	enough cells to score	inactive
Vmn1r58	0.62	1.44	1.3	enough cells to score	inactive
Gpr143	-0.26	1.49	1.53	enough cells to score	inactive
Ipo13	-0.9	1.49	1.25	enough cells to score	inactive
1810009A15Rik	-1.79	1.13	1.22	enough cells to score	active

The list goes on:
gene knocked down,p65 translocation robust z-score,"nuclear/cytoplasmic p65 ratio, rep 1","nuclear/cytoplasmic p65 ratio, rep 2",low cell count flag,outcome
Wee2,,1.16,1.44,fewer than 50 cells per well; well left out of scoring,inactive
Fgf4,-1.45,1.15,1.21,enough cells to score,inactive
Atp11a,0.04,1.49,1.63,enough cells to score,inactive
Klrd1,-0.23,1.48,1.32,enough cells to score,inactive
Gmfb,0.42,1.71,1.48,enough cells to score,inactive
Fyttd1,,1.22,1.62,fewer than 50 cells per well; well left out of scoring,inactive
Ccl3,,1.32,1.51,fewer than 50 cells per well; well left out of scoring,inactive
Ntrk2,1.19,1.82,1.57,enough cells to score,inactive
Kif6,0.83,1.74,1.48,enough cells to score,inactive
Bloc1s6,,1.18,1.07,fewer than 50 cells per well; well left out of scoring,inactive
Csn1s2b,-0.05,1.61,1.73,enough cells to score,inactive
Shroom3,,1.28,1.2,fewer than 50 cells per well; well left out of scoring,inactive
Trib1,,2.3,1.71,fewer than 50 cells per well; well left out of scoring,inactive
AY358078,-0.51,1.62,1.48,enough cells to score,inactive
Arrdc1,0.22,1.53,1.65,enough cells to score,inactive
Abcc1,-0.12,1.59,1.6,enough cells to score,inactive
Actr3b,-0.03,1.59,1.63,enough cells to score,inactive
Polq,0.6,1.42,1.32,enough cells to score,inactive
Scgb3a1,,1.2,0.993,fewer than 50 cells per well; well left out of scoring,inactive
Cstf2t,-0.08,1.61,1.72,enough cells to score,inactive
Gsc,-1.19,1.39,1.44,enough cells to score,inactive
Htr2c,-0.27,1.5,1.51,enough cells to score,inactive
Emc7,,1.52,1.44,fewer than 50 cells per well; well left out of scoring,inactive
Or8b1c,0.74,1.5,1.39,enough cells to score,inactive
Tanc2,1.47,1.44,1.78,enough cells to score,inactive
Ei24,-0.19,1.45,1.34,enough cells to score,inactive
Podxl2,-0.02,1.61,1.74,enough cells to score,inactive
Tff2,,1.32,1.18,fewer than 50 cells per well; well left out of scoring,inactive
Ppp1r21,0.26,1.54,1.52,enough cells to score,inactive
Snta1,-0.13,1.22,1.22,enough cells to score,inactive
Zfp236,-0.45,1.36,1.19,enough cells to score,inactive
Upp2,-1.63,1.07,1.14,enough cells to score,active
Akr1a1,-0.59,1.44,1.61,enough cells to score,inactive
C530043A13Rik,1.3,1.56,1.75,enough cells to score,inactive
